PubChem BioAssay AID504774 – Drosophila RNAi Screening Center – 2011
Purpose: 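Genes required for cells to withstand methyl methanesulphonate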 (primary screen). System: Drosophila Kc167 cells. Reagents: long dsRNA against Drosophila genes, about 0.25 µg dsRNA per well. Duration: about 6 days: 3 days knock-down, then 3 days with or without MMS. Conditions: methyl methanesulphonate 0.004% (w/v) for 3 days after knock-down. Measured: 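Viability in wells given MMS, read as ATP luminescence, normalised by quantiles plate by plate and averaged across replicates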. Reading the numbers: mean viability with MMS and viability with MMS: higher = more surviving cells after MMS.
The screen tested about 23,000 reagents; this is an unselected part of those with a known target gene and a result. 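Values are quantile-normalised luminescence on an arbitrary scale; higher means more cells surviving MMS.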 The numbers tell different reagents against one gene apart. Names joined by + are all predicted targets of the reagent.

no.	gene	reagent no.	mean viability with MMS	viability with MMS, replicate 1	viability with MMS, replicate 2
1	CG31064	1	3.45e6	3.92e6	3.85e6
2	CG31064	2	3.51e6	3.95e6	3.98e6
3	CG31064	3	3.53e6	3.95e6	4.05e6
4	CG31064	4	3.30e6	3.64e6	3.71e6
5	CG11593	1	3.45e6	3.93e6	3.90e6
6	alpha-Man-Ia	1	3.32e6	3.71e6	3.80e6
7	alpha-Man-Ia	2	3.47e6	3.94e6	3.91e6
8	alpha-Man-Ia	3	3.51e6	4.02e6	3.94e6
9	alpha-Man-Ia	4	3.32e6	3.80e6	3.76e6
10	alpha-Man-Ia	5	3.52e6	4.03e6	3.98e6
11	Spt-I	1	3.49e6	3.95e6	3.91e6
12	Hrb27C	1	3.42e6	3.70e6	3.95e6
13	nAChRalpha5	1	3.73e6	4.06e6	4.25e6
14	nAChRalpha5	2	3.48e6	4.04e6	3.87e6
15	nAChRalpha5	3	3.66e6	4.16e6	4.02e6
16	nAChRalpha5	4	3.36e6	3.90e6	3.85e6
17	CG14490	1	3.64e6	4.03e6	4.18e6
18	Reg-5	1	3.18e6	2.86e6	3.32e6
19	LTV1	1	3.38e6	3.75e6	3.87e6
20	Tsen2	1	3.47e6	4.00e6	3.89e6
21	CG15093	1	3.46e6	3.88e6	3.97e6
22	RhoL	1	3.65e6	4.14e6	4.18e6
23	hdm	1	3.55e6	3.99e6	4.09e6
24	CG5376	1	3.34e6	3.86e6	3.76e6
25	CG15236	1	3.72e6	4.26e6	4.03e6
26	CG15236	2	3.20e6	3.75e6	3.74e6
27	CG15236	3	3.72e6	4.18e6	4.26e6
28	mthl7	1	3.50e6	3.94e6	4.00e6
29	CG4615	1	3.49e6	3.86e6	4.07e6
30	CG4615	2	3.42e6	3.81e6	3.89e6
31	CG32551	1	3.51e6	3.96e6	4.01e6
32	Pih1D1	1	3.64e6	4.10e6	4.19e6
33	CG42557 + CG42558	1	3.53e6	4.03e6	3.97e6
34	CG42557 + CG42558	2	3.46e6	3.98e6	3.87e6
35	GluClalpha	1	3.62e6	3.97e6	4.23e6
36	CG8366	1	3.44e6	3.84e6	3.93e6
37	Alg2	1	3.45e6	3.97e6	3.86e6
38	Cpr78Cc	1	3.46e6	4.01e6	3.81e6
39	fzo	1	3.62e6	4.12e6	4.08e6
40	IntS12	1	3.37e6	3.80e6	3.77e6
41	Mob3	1	3.40e6	4.02e6	3.64e6
42	CG6628	1	3.55e6	3.98e6	4.08e6
43	Best1	1	3.54e6	4.18e6	4.11e6
44	Best3	1	3.37e6	3.86e6	3.71e6
45	Rrp4	1	3.56e6	3.89e6	4.27e6
46	Tap42	1	3.60e6	4.18e6	3.97e6

Copied from the list:
CG8366, viability with MMS, replicate 1 = 3.84e6
Result of GluClalpha in “viability with MMS, replicate 2”: 4.23e6
Entry for CG31064 #2 in “viability with MMS, replicate 1”: 3.95e6
Under “viability with MMS, replicate 2”, CG31064 #1 has 3.85e6
Under “viability with MMS, replicate 2”, alpha-Man-Ia #2 is entered as 3.91e6
